In all, about 320,000 compounds went through this assay and about 480 (0.15%) were called active. The inconclusive results got no clear call from the source; some entries with a clear call stand among them for comparison. Rule as the data show it: active = inhibition above about 26% (passing the limit was not always enough); inconclusive = no clear call, values can overlap the other calls.
target: Histone deacetylase 3 (Homo sapiens) (UniProt O15379); assay: HDAC3 deacetylase inhibitors, primary screen, biochemical, fluorescence, cell-free homogeneous (AID 2718); conditions: recombinant HDAC3, fluorogenic peptide/trypsin coupled, at 8.3 µM, hits give high values

The chains behind the UniProt entries cited, without tags or fusion partners. Where a name states a change or a piece, a line headed by the entry shows the natural chain unless it says otherwise.
UniProt O15379: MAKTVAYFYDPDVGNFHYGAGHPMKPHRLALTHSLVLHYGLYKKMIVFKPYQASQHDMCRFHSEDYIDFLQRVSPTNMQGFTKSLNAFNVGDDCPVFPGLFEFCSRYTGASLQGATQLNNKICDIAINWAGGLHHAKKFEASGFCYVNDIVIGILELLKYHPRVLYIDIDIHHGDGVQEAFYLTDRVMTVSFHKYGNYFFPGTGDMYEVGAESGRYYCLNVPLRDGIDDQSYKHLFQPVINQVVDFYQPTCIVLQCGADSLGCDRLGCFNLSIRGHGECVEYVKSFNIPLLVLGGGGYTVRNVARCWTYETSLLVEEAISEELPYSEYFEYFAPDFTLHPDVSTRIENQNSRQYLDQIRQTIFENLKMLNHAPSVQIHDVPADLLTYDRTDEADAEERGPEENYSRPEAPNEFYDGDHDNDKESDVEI

Row | SMILES | inhibition
1 | COc1cccc2sc(N(C)c3ccccc3)nc12 | inactive: 8.37%
2 | CCCCCCCCCCOC(=O)Cn1c(COc2ccc(OC)cc2)[n+](C)c2ccccc21 | inconclusive: 25.6%
3 | COc1cc2nc(SCc3ccc(Cl)cc3Cl)n(Cc3cccs3)c(=N)c2cc1OC | inactive: 0.534%
4 | O=c1oc(-c2ccccc2Cl)nc2ccsc12 | inconclusive: 31.7%
5 | CN(C)c1ccc(/C=N\NC(=O)CC#N)cc1 | inactive: -3.62%
6 | CCOc1cc(/C=N/NC(=O)c2ccc(=O)n(C)c2)ccc1O | inconclusive: 22.3%
7 | CCc1ccc(Nc2nc3ccccc3c(=O)s2)cc1 | inconclusive: 24.9%
8 | CCOC(=O)Cc1nn2c(=O)cc(C)nc2s1 | inactive: 3.82%
9 | Cc1ccc(NC(=O)COC(=O)c2cccc(C)c2[N+](=O)[O-])cc1S(=O)(=O)N1CCCCC1 | inconclusive: 18.3%
10 | COc1ccc(-c2cc(C)no2)cc1S(=O)(=O)NCCCN(C)Cc1ccccc1 | inconclusive: 22.6%
11 | COc1cc(C(=O)NNC(=S)NC(=O)c2ccc3c(c2)OCO3)cc(OC)c1OC | inconclusive: 13%
12 | O=C1C(=O)N(CCN2CCOCC2)C(c2ccccn2)/C1=C(/O)c1ccc(Cl)cc1 (configuration not stated) | inconclusive: 26.3%
13 | CCc1c(C)nc2ncnn2c1N1CCN(S(=O)(=O)c2ccc(OC)cc2)CC1 | inactive: -4.21%
14 | CCCN(CC(=O)Nc1ccccc1C)C(=O)c1ccc(C2SCCS2)cc1 | active: 80.3%
15 | O=c1cnn([C@@H]2O[C@H](CO)[C@@H](O)[C@H]2O)c(=O)[nH]1 | inactive: 3.47%
16 | O=[N+]([O-])c1cccc(/C=C2\CCC(/C=N/Nc3ccc4ccccc4n3)=C2N2CCOCC2)c1 | inconclusive: 21.7%
17 | CCC(C)NC(=O)Cn1c(-c2ccccc2)cc(C(C)=O)c1C (configuration not stated) | inconclusive: 17.1%
18 | CCN=c1scc(C)n1/N=C/c1cc(Br)c(O)c(OC)c1 | inconclusive: 14.3%
19 | CCOC(=O)C1=C(CN2CCSCC2)NC(=O)NC1c1cc(C)ccc1C (configuration not stated) | inconclusive: 21.2%

Row | SMILES | inhibition
20 | CCC/C=C(\CCC)C(NS(=O)(=O)c1ccc(C(F)(F)F)cc1)c1ccccc1 (configuration not stated) | active: 26.6%
21 | COc1ccnc(-n2cccc2C#N)c1C#N | inconclusive: 23.9%
22 | CCOc1ccc(C(O)(CCC(C)C)C(CN2CCOCC2)c2ccccc2)cc1 (configuration not stated) | inconclusive: 26.5%
23 | COc1ccc(OC)c(S(=O)(=O)ON2C(=O)c3ccccc3C2=O)c1 | active: 37.1%
24 | COC(=O)c1ccc(NC(=O)c2cccc(NC(=O)c3ccco3)c2)cc1 | inconclusive: 35%
25 | COC(=O)CC1COc2ccccc2N1C(=O)/C=C/c1ccccc1 (configuration not stated) | inconclusive: 15.7%
26 | O=C(CCCc1c[nH]c2ccccc12)Nc1ncccc1O | inconclusive: 26.8%
27 | Cc1occc1C(=O)Nc1ccc2c(c1)OCCO2 | inactive: 1.01%
28 | CNc1nc(Nc2ccc([N+](=O)[O-])cc2)nc(OCC(F)(F)F)n1 | inactive: 2.75%
29 | O=C(Cn1[nH]c(=O)c2ccccc2c1=O)NC1CCCCCC1 | inactive: 6.45%
30 | CN(CCCNC(=O)C1CCC(=O)N1Cc1ccc(F)cc1)c1ccccc1 (configuration not stated) | inactive: -10.4%
31 | CN(C)c1ccc(P(=O)(OCc2ccccc2)C(O)c2ccncc2)cc1 (configuration not stated) | inactive: 0.0265%
32 | Nc1ccc(-c2c3ccc(=O)cc-3oc3cc(O)ccc23)c(C(=O)O)c1 | inconclusive: 15.4%
33 | O=C(CSc1nnc(NC(=O)c2ccco2)s1)Nc1ccccc1Br | inconclusive: 13.5%
34 | Cc1cccc(C2c3[nH]c4ccccc4c3CCN2C(=O)c2cc(-c3cccn3C)n[nH]2)n1 (configuration not stated) | inconclusive: 9.26%
35 | CC1CCCC(NC(=O)CSc2nnc(-c3cccnc3)n2N)C1C (configuration not stated) | inactive: 13%
36 | O=C(Oc1ccc(-n2cnnn2)cc1)c1ccco1 | active: 35.6%
37 | N/C(=N\OC(=O)Oc1ccccc1)c1ccc(Cl)cc1 | inconclusive: 20.1%
38 | CCOc1ccccc1C1NC(=O)c2ccccc2O1 (configuration not stated) | inconclusive: 20.4%

Row | SMILES | inhibition
39 | COc1ccc(C)cc1NC(=O)CN1C(=O)COc2ccc(S(=O)(=O)N3CCCCCC3)cc21 | inconclusive: 18.8%
40 | CC(C)n1cnnc1SCC(=O)NC(=O)c1ccccc1 | inconclusive: 18.4%
41 | Oc1cccc(/C=N/N2CCN(C3c4ccccc4-c4ccccc43)CC2)c1 | inactive: 9.44%
42 | O=C(Nc1ccc(-c2nc3ccccc3s2)cc1)C1=COCCO1 | inactive: -9.84%
43 | CCCn1c(SCc2cc(=O)oc3ccc4ccccc4c23)n[nH]c1=O | inactive: -14.7%
44 | Cc1nn(C(C)C(=O)NNC(=S)Nc2ccc(Cl)cc2)c(C)c1[N+](=O)[O-] (configuration not stated) | inactive: 3.45%
45 | CCC(C)NC(=O)c1ccccc1NC(=O)c1ccccc1N(C)S(C)(=O)=O (configuration not stated) | inconclusive: 18.5%
46 | CCN1CCN(C(=O)c2ccccc2N(Cc2ccccc2)S(=O)(=O)c2ccc(C)cc2)CC1 | inconclusive: 21.8%
47 | Cn1c(=O)n(C)c2cc(C(=O)c3ccccc3)ccc21 | inconclusive: 14.2%
48 | CCOc1cc(C2CC(=O)N3CN(C4CCCCC4)CSC3=C2C#N)ccc1O (configuration not stated) | inconclusive: 19.5%
49 | O=C(Cn1cnc2ccccc2c1=O)Nc1ccc(S(=O)(=O)N2CCOCC2)cc1 | inactive: 3.83%
50 | COc1ccc(C2NC(C(=O)O)Cc3c2[nH]c2ccccc32)cc1CN1CCN(c2ccc(F)cc2)CC1 (configuration not stated) | inconclusive: 11.1%
51 | CCOC(=O)c1cc(S(=O)(=O)NC2CCC(C)CC2)cn1C (configuration not stated) | inconclusive: 11.2%
52 | O=C(Oc1ccc(Cl)cc1N1C(=O)CCC1=O)c1ccco1 | active: 34.1%
53 | CCN1C(=O)C(O)(C2COC(C)(C)CC2=O)c2cc(Br)ccc21 (configuration not stated) | inconclusive: 14.8%
54 | CN(CC(=O)NCCc1ccc(F)cc1)Cc1ccc(Br)cc1 | inconclusive: 15%
55 | O=[N+]([O-])c1ccc(C2CCCC/C2=N/OCc2ccccc2F)c([N+](=O)[O-])c1 (configuration not stated) | inconclusive: 21.6%
56 | CCCNC(=O)N[C@@H](Cc1ccccc1)C(=O)OC | inconclusive: 21.5%
57 | CCOc1ccc(-c2nnn(CC(=O)c3ccc4c(c3)OCCO4)n2)cc1 | inconclusive: 12.1%

From compound 29 up to 32, as listed above:
Row | SMILES | inhibition
29 | O=C(Cn1[nH]c(=O)c2ccccc2c1=O)NC1CCCCCC1 | inactive: 6.45%
30 | CN(CCCNC(=O)C1CCC(=O)N1Cc1ccc(F)cc1)c1ccccc1 (configuration not stated) | inactive: -10.4%
31 | CN(C)c1ccc(P(=O)(OCc2ccccc2)C(O)c2ccncc2)cc1 (configuration not stated) | inactive: 0.0265%
32 | Nc1ccc(-c2c3ccc(=O)cc-3oc3cc(O)ccc23)c(C(=O)O)c1 | inconclusive: 15.4%

From PubChem BioAssay AID2718 (Broad Institute, 2010)
